# Results: PubChem BioAssay AID2685 (National Center for Advancing Translational Sciences (NCATS), 2010)
# The campaign covered roughly 320,000 compounds. About 2,100 (0.66%) were called active. Inconclusive results, whose numbers are uncertain, are shown with a selection of clear calls. Calls follow the shape of the dose curve; as a rule, active = well fitted inhibition curve with a large enough effect in the signal ratio, with a control signal flat (not every such curve was filed as active); inconclusive = small, poorly fitted or top-dose-only effect, or effect the other way, or a change in a side signal; inactive = flat fitted curve, though single readings scatter; the % refers to the signal ratio. Where the call is inconclusive, the potency comes from a doubtful curve fit.
# Experiment: qHTS Assay for Lipid Storage Modulators in Drosophila S3 Cells
# Conditions: BODIPY lipid droplet fluorescence, 18-24 h, cells fed with added oleic acid; lipid storage change, negative = inhibition: at 46.1 µM (top of the series) unless noted
# How it was run: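 Laser-scanning cytometry quantifies lipid droplet accumulation (500–530 nm total intensity; droplet/cell object ratio) in oleic acid-fed (400 uM added) Drosophila S3 cells treated with a concentration series. 20 uM Triacsin C defined 100% inhibition.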
# % is scaled to controls: 0 for no effect and ±100 for the full control effect; potency is read from the fitted curve at half-maximal effect.
SMILES,"lipid storage change, negative = inhibition",Potency,outcome
CC(C)(C)C(=O)Nc1ccc(S(=O)(=O)N2CCC(c3nc4ccccc4[nH]3)CC2)cc1,inconclusive: -62% [at 0.0737 µM],–,–
O=S(=O)(c1ccc(Oc2ccc(Br)cc2F)nc1)N1CCCCC1,inconclusive: -1.41%,–,–
CCOC(=O)c1ncn2c1[C@@H]1CCNC1C(=O)c1cc(OC)ccc1-2 (some centres undefined),inconclusive: 19.4%,–,–
COc1ccc(-c2noc(CCCC(=O)Nc3ccc(C(N)=O)cc3)n2)cc1,inconclusive: 11%,–,–
COc1ccc(Cn2cccc(NC(=O)Nc3ccc(C#N)cc3)c2=O)cc1,inconclusive: 47.2%,–,–
COc1ccc(NC(=O)CN2C(=O)NC(c3ccccc3)(c3ccccc3)C2=O)cc1OC,inconclusive: -21.6%,–,–
COc1ccccc1CNC(=S)NCc1ccc(Cl)cc1,–,"inconclusive: 13 µM [falling, partial curve, poor fit]",–
COc1cccc(N(Cc2nnc3n2CCCCC3)C(=O)Nc2ccccc2)c1,inconclusive: -15.5%,–,–
COc1cc(/C=N\Nc2ccc([N+](=O)[O-])cc2)ccc1OCC(=O)Nc1ccc(C)c(C)c1,inconclusive: -38.6%,–,–
COc1ccccc1C(=O)NC(CCSC)C(=O)OC(C)C(N)=O (centres undefined),inconclusive: -0.739%,–,–
CC1CCN(C(=O)CN(C2CCCCC2)S(C)(=O)=O)CC1,inconclusive: -41.2%,–,–
Cc1ccccc1N=C1NC(=O)CS1,inconclusive: -0.541%,–,–
N/C(=N\OC(=O)c1cccc(Br)c1)c1ccc([N+](=O)[O-])cc1,–,"inconclusive: 4.61 µM [falling, full curve]",–
CCn1nc(NS(=O)(=O)c2ccc(F)cc2)c2cc3cccc(C)c3nc21,–,–,inactive [at 46.1 µM]
CC(C)c1ccc(Nc2nnns2)cc1,inconclusive: 7.24%,–,–
CCN(CC)CCOC(=O)C(Cc1cccc2ccccc12)CC1CCCO1 (centres undefined),inconclusive: -8.76%,–,–
CN(c1ccccc1)C(c1ccc(F)cc1)c1nnnn1C1CCCC1 (centres undefined),inconclusive: -11.6%,–,–
CC(=O)Nc1nnc(-c2ccc(Cl)s2)o1,inconclusive: 30.9%,–,–
CCn1nc(C)c(/C=N/NC(=O)Cn2nccc2C)c1C,inconclusive: -2.31%,–,–
C=CCNC(=O)C1CC2Cn3c(nc4cc(Cl)c(Cl)cc43)C2N1C (centres undefined),–,"inconclusive: 6.51 µM [activator, partial curve, poor fit]",–
COC(=O)C(Cc1ccccc1)NCC(=O)Nc1cccc(Cl)c1C (centres undefined),inconclusive: 20.9%,–,–
C1=CN2CCC1C(c1ccccc1)C2 (centres undefined),inconclusive: -12.4%,–,–
C#CCN1C(=O)C(O)(CC(=O)/C=C/c2ccco2)c2ccccc21 (centres undefined),inconclusive: -91.7%,–,–
O=C(Nc1cccc2ncccc12)c1ccc2c(c1)OCCO2,inconclusive: 12.7%,–,–
CC12CCC(c3c(C(=O)N4CCOCC4)nn(-c4ccccc4)c31)C2(C)C (centres undefined),inactive: 10.8%,–,–
CCOC(=O)C1CCN(C(=O)Cn2cnc3sc(C)c(S(=O)(=O)N4CCC(C)CC4)c3c2=O)CC1,–,active: 0.58 µM,–
COc1ccccc1-c1ccc(C(=O)O)o1,–,"inconclusive: 29.1 µM [falling, single point]",–

SMILES,"lipid storage change, negative = inhibition",Potency,outcome
Cc1cc(C)nc(NS(=O)(=O)c2ccccc2)n1,inconclusive: -5.4%,–,–
c1coc(CNc2ncnc3sc4c(c23)CCCCC4)c1,inconclusive: 16.9%,–,–
O=C(NCc1ccccc1)c1cccc(COc2cccc(Cl)c2)c1,inconclusive: 6.65%,–,–
Cc1ccccc1OCC(=O)NNC(=O)C1CCCCC1C(=O)O (centres undefined),inconclusive: -8.63%,–,–
Cc1cc(N=CC2=C(O)CCCC2=O)no1,inconclusive: 48.3%,–,–
Cc1nc2c(c(=O)n1CCC1=CCCCC1)c1nc3ccccc3nc1n2/N=C/c1ccccc1,–,"inconclusive: 0.13 µM [activator, full curve, poor fit]",–
CN(Cc1ccccc1)C(=O)COC(=O)CCNC(=O)c1ccccc1Cl,–,"inconclusive: 0.259 µM [cytotoxic, full curve, poor fit]",–
COC(=O)c1sccc1NC(=O)/C=C/c1ccc(Cl)cc1,inconclusive: 15.3%,–,–
CCOC(=O)COc1ccc(Oc2nc(C)cc(OC)n2)nn1,–,"inconclusive: 0.058 µM [activator, full curve, poor fit]",–
Brc1ccc(CSc2nnc(-c3ccccn3)n2Cc2ccco2)cc1,–,"inconclusive: 29.1 µM [activator, single point]",–
CCOC(=O)c1ccccc1NC(=O)COC(=O)c1cc([N+](=O)[O-])ccc1N1CCOCC1,inconclusive,–,–
COc1cc(NC(=O)CN(c2ccc(C)cc2)S(=O)(=O)c2c(C)nn(C)c2C)cc(OC)c1,–,"inconclusive: 2.06 µM [activator, full curve, poor fit]",–
CCC(C)(C)n1nnnc1CN1CCSCC1,–,"inconclusive: 18.4 µM [falling, single point]",–
CC(C)(C)c1cc(NC(=O)c2ccco2)no1,inconclusive: 31%,–,–
Cc1c(Cl)cccc1NC(=O)Cn1cccc1,inconclusive: 30.2% [at 0.0737 µM],–,–
O=C(Nc1cccc(-c2nc3ncccc3o2)c1)c1sc2ccccc2c1Cl,inconclusive: -26.1%,–,–
O=S(=O)(c1ccc2c(c1)CCN2)N1CCOCC1,–,"inconclusive: 0.184 µM [activator, full curve]",–
Cc1cc(-n2c(C)cc(C(=O)COc3ccc4ccc(=O)oc4c3)c2C)no1,inactive: -4.04%,–,–
COc1cc(/C=C/C(=O)OCC(=O)NC(=O)NC(C)C)cc(S(=O)(=O)N2CCc3ccccc32)c1OC,–,"inconclusive: 5.17 µM [activator, full curve]",–
Cc1ccc(C(=O)Nc2cc(=O)n(C)c(=O)n2C)cc1C,inconclusive: 27.1% [at 9.22 µM],–,–
Cn1c(=O)c2c(nc(CN3CCOCC3)n2CC(O)CO)n(C)c1=O (centres undefined),inconclusive: -17.8%,–,–
Cc1ccccc1NC(=O)C(=O)N/N=C/c1cccc(Br)c1,inconclusive: -1.62%,–,–
Cc1ccc(C(=O)NC2CCCc3ccccc32)cc1[N+](=O)[O-] (centres undefined),–,"inconclusive: 29.1 µM [activator, single point]",–
CCOc1ccccc1/C=C/c1onc(C)c1S(=O)(=O)N1CCC(C(=O)NC)CC1,inconclusive: -54.8%,–,–
CCn1nc(C)c(NC(=O)c2cc(Br)ccc2Cl)c1C,inconclusive: 27.6%,–,–
O=C(CCSc1ccccc1)Nc1ccccc1Br,inactive: -12.8%,–,–
CN(C)S(=O)(=O)c1ccc(C(=O)Nc2ccccn2)cc1,inconclusive: -2.13%,–,–

SMILES,"lipid storage change, negative = inhibition",Potency,outcome
CN(C(=O)c1cccs1)c1ccc(OCC(=O)Nc2ccc(C(=O)O)cc2)cc1,inconclusive: -31.7%,–,–
CCSc1nnc(-c2ccc(S(=O)(=O)N3CCCC3)cc2)n1C,inconclusive: -54%,–,–
CCOc1ccc(-c2c(C(=O)N/N=C/c3cccc(Br)c3)nnn2-c2nonc2N)cc1,inconclusive: -45.9%,–,–
COc1ccc(C2C(C(N)=O)=C(C)Nc3nc(-c4ccccc4Cl)nn32)c(OC)c1 (centres undefined),inconclusive: 30.7%,–,–
c1ccc(CN2CCC(Nc3nc(-c4ccccc4)nc4ccccc34)CC2)cc1,inconclusive: -100%,–,–
CC(Sc1ccc(S(=O)(=O)N2CCN(C)CC2)cn1)C(=O)NC1CCCCC1 (centres undefined),inconclusive: 10.2%,–,–
CCC(C)Oc1ccc(C(=O)Nc2ccc(CN3CCOCC3)cc2)cc1 (centres undefined),inconclusive: -49.3%,–,–
CCCn1c(N)c(C(=O)COC(=O)CCNS(=O)(=O)c2ccccc2F)c(=O)[nH]c1=O,inconclusive: 0.963%,–,–
O=C(CN1C(=O)NC2(CCCC2)C1=O)Nc1cccc(C(F)(F)F)c1,inconclusive: 78.9%,–,–
C=C(C)C(=O)N1CC2(CC(c3cccc(NC(=O)CC(c4ccccc4)c4ccccc4)c3)=NO2)C[C@H]1C(N)=O (some centres undefined),inactive: 7.73%,–,–
CC(=O)Oc1ccc(-c2nc(-c3cccnc3)no2)cc1,–,"inconclusive: 29.1 µM [rising, single point]",–
COc1ccc(NC(=S)N2CCN(S(=O)(=O)c3ccc(C)cc3)CC2)cc1,inconclusive: -21.7%,–,–
Cc1ccc(S(=O)(=O)c2nc(S(C)(=O)=O)sc2N2CCOCC2)cc1,–,"inconclusive: 4.61 µM [falling, single point]",–
Cn1c(=O)c(=O)n(C)c2cc([N+](=O)[O-])c(N3CCOCC3)cc21,inconclusive: 9.23%,–,–
COc1cccc2sc(N3CCN(c4nc5ccccc5s4)CC3)nc12,inconclusive: 31.3%,–,–
COc1ccc(-c2ccccc2)cc1NCc1ccc(OC)c(OC)c1,–,"inconclusive: 23.1 µM [activator, single point]",–
COc1ccccc1NC(=O)c1ccc(NC(=O)c2ccc(=O)[nH]c2)cc1,inconclusive: -3.96%,–,–
Cc1ccc(C(C)C)c(OCC(=O)Nn2c(C)nc3ccccc3c2=O)c1,–,–,inactive [at 46.1 µM]
Cc1ccc(SC(c2ccc(C)cc2)C(Cn2cncn2)C(=O)c2ccccc2)cc1 (centres undefined),–,"inconclusive: 0.13 µM [rising, full curve, poor fit]",–
COc1ccc(CCCNC(=O)C2CCC(=O)N(Cc3ccc(Cl)cc3)C2)cc1 (centres undefined),inconclusive: -100%,–,–
CC(c1ccccc1)c1nnc(N)s1 (centres undefined),inconclusive: 38.3%,–,–
NC(=O)Nc1ccc(C(=O)OCC(=O)NCc2ccc3c(c2)OCO3)cc1,–,"inconclusive: 2.91 µM [activator, partial curve]",–
CC(=O)N1CCc2c(sc(NC(=O)CCS(=O)(=O)c3ccccc3)c2C(N)=O)C1,–,"inconclusive: 17.8 µM [falling, partial curve, poor fit]",–
CSc1nnc(-c2cc3c(s2)-c2ccccc2CC3)o1,–,"inconclusive: 29.1 µM [activator, single point]",–
CC(C)[C@@H](C(=O)NCC1CCC(C(=O)O)CC1)n1nnc2ccccc2c1=O (some centres undefined),inconclusive: 60.3%,–,–

# Part of the list above in a different format.
SMILES | lipid storage change, negative = inhibition | Potency | outcome
COc1ccc(C2C(C(N)=O)=C(C)Nc3nc(-c4ccccc4Cl)nn32)c(OC)c1 (centres undefined) | inconclusive: 30.7% | – | –
c1ccc(CN2CCC(Nc3nc(-c4ccccc4)nc4ccccc34)CC2)cc1 | inconclusive: -100% | – | –
CC(Sc1ccc(S(=O)(=O)N2CCN(C)CC2)cn1)C(=O)NC1CCCCC1 (centres undefined) | inconclusive: 10.2% | – | –
CCC(C)Oc1ccc(C(=O)Nc2ccc(CN3CCOCC3)cc2)cc1 (centres undefined) | inconclusive: -49.3% | – | –
CCCn1c(N)c(C(=O)COC(=O)CCNS(=O)(=O)c2ccccc2F)c(=O)[nH]c1=O | inconclusive: 0.963% | – | –
O=C(CN1C(=O)NC2(CCCC2)C1=O)Nc1cccc(C(F)(F)F)c1 | inconclusive: 78.9% | – | –
C=C(C)C(=O)N1CC2(CC(c3cccc(NC(=O)CC(c4ccccc4)c4ccccc4)c3)=NO2)C[C@H]1C(N)=O (some centres undefined) | inactive: 7.73% | – | –
CC(=O)Oc1ccc(-c2nc(-c3cccnc3)no2)cc1 | – | inconclusive: 29.1 µM [rising, single point] | –
COc1ccc(NC(=S)N2CCN(S(=O)(=O)c3ccc(C)cc3)CC2)cc1 | inconclusive: -21.7% | – | –
Cc1ccc(S(=O)(=O)c2nc(S(C)(=O)=O)sc2N2CCOCC2)cc1 | – | inconclusive: 4.61 µM [falling, single point] | –
Cn1c(=O)c(=O)n(C)c2cc([N+](=O)[O-])c(N3CCOCC3)cc21 | inconclusive: 9.23% | – | –
COc1cccc2sc(N3CCN(c4nc5ccccc5s4)CC3)nc12 | inconclusive: 31.3% | – | –
COc1ccc(-c2ccccc2)cc1NCc1ccc(OC)c(OC)c1 | – | inconclusive: 23.1 µM [activator, single point] | –
COc1ccccc1NC(=O)c1ccc(NC(=O)c2ccc(=O)[nH]c2)cc1 | inconclusive: -3.96% | – | –
Cc1ccc(C(C)C)c(OCC(=O)Nn2c(C)nc3ccccc3c2=O)c1 | – | – | inactive [at 46.1 µM]
Cc1ccc(SC(c2ccc(C)cc2)C(Cn2cncn2)C(=O)c2ccccc2)cc1 (centres undefined) | – | inconclusive: 0.13 µM [rising, full curve, poor fit] | –
COc1ccc(CCCNC(=O)C2CCC(=O)N(Cc3ccc(Cl)cc3)C2)cc1 (centres undefined) | inconclusive: -100% | – | –
CC(c1ccccc1)c1nnc(N)s1 (centres undefined) | inconclusive: 38.3% | – | –
